This passage reports binding results from publication PMC10889066.

Protein sequences, listed by entry. Tags and fused reporters are not part of them. Lines headed by an entry give the natural chain unless they say otherwise; changes in a name come on top.
UniProt P05556: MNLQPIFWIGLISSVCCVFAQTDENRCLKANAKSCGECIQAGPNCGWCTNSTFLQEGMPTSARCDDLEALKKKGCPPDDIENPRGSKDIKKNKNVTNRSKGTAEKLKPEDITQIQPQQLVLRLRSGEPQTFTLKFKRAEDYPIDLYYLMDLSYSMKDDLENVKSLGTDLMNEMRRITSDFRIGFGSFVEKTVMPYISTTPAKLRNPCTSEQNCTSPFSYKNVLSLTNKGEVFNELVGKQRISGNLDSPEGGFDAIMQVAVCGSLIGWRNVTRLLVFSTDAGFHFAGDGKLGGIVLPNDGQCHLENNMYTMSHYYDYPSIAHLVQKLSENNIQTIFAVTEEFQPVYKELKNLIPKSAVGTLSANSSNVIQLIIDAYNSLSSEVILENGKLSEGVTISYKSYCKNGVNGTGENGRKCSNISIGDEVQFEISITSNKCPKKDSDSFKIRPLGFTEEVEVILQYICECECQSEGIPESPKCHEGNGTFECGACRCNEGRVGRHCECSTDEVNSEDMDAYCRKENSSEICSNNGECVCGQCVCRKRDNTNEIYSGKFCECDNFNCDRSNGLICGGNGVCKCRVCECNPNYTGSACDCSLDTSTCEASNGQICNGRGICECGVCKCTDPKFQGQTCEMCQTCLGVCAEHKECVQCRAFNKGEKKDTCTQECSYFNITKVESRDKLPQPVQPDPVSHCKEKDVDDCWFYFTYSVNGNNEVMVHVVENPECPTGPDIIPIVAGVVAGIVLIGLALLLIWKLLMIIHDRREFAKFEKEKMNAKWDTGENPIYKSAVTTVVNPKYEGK
UniProt Q96AC1: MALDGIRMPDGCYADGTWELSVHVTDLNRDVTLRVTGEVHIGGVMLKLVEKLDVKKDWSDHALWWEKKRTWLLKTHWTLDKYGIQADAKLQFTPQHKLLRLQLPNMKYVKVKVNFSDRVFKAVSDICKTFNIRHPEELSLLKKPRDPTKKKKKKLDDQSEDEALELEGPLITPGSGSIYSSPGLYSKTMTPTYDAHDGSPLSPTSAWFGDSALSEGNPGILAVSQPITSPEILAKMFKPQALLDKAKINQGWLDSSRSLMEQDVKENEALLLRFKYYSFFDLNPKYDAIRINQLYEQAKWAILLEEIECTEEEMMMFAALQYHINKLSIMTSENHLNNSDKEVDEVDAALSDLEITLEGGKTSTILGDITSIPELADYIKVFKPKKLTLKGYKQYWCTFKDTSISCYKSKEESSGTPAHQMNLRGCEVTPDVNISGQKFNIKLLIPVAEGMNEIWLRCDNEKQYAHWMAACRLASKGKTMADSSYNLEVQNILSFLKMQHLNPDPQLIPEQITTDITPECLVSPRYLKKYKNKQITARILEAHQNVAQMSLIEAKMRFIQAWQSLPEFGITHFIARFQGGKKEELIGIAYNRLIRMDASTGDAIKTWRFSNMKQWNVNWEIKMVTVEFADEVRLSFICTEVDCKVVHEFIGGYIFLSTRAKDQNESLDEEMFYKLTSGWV

Results are given in words; binding and its absence hold for the method and conditions named. For part of these data: Binding seen in cells or lysates may run through a third protein. Some entries that bind do so weakly or less than the wild type.

The target of test [1] is β1-Integrin (human (endogenous in MDA-MB-231)) (UniProt P05556). As to the kind of experiment: co-IP; total protein lysates of MDA-MB-231 cells (RIPA or NP40 lysis buffer), incubated at 4°C with protein A resin and specific antibodies; endogenous proteins; western blot. For orientation: A western blot detects proteins with antibodies after separation by electrophoresis.
Test [2] concerns the target T1, TGF-β type 1 receptor (human (endogenous in MDA-MB-231)) (UniProt P36897).
T1 sequence: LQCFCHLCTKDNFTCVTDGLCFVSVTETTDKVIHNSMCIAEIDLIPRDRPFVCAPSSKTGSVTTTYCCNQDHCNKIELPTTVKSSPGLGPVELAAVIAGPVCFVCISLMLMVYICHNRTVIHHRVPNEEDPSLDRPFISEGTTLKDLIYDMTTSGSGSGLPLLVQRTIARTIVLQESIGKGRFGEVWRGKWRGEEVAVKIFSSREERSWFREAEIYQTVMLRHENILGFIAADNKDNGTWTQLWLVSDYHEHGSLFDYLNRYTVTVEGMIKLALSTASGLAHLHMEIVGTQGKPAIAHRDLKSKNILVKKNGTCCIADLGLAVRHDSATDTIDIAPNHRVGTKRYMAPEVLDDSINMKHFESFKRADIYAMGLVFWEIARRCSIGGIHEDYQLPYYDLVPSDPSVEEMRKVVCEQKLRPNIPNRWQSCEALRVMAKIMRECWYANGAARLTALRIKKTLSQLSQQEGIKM
Described as above.

Test [3] addresses T2, TβRI (pull-down assays) (UniProt P36897).
T2 sequence: T1 sequence
As to the kind of experiment: pull-down; pull-down assays with Kindlin-2 and TβRI (Fig. 1F); bait, constructs and conditions not told.

In test [4] the target is immobilized β1-Integrin (UniProt P05556). As to the kind of experiment: SPR; printed as 'surface plasmon resonance analyses (solid binding assay)'; TβRI or β1-Integrin immobilised, recombinant Kindlin-2 in solution; both purified. A general note: In SPR one partner is held on a chip, and binding of the other changes the refractive index at the surface.
The target in test [5] is T3, immobilized TβRI (UniProt P36897).
T3 sequence: T1 sequence
Described as above.

The target of test [6] is Kindlin-2 (human (endogenous in MDA-MB-231)) (UniProt Q96AC1). As to the kind of experiment: co-IP; total protein lysates of MDA-MB-231 cells (RIPA or NP40 lysis buffer), incubated at 4°C with protein A resin and specific antibodies; endogenous proteins; western blot.

On to Kindlin-2 (from UniProt Q96AC1 1-680), for which the binding entry in test [1] and in test [2] was “binds” throughout.
“Kindlin-2 (pull-down assays) (from UniProt Q96AC1 1-680)”: in test [3], the binding result was “binds”.
Regarding “recombinant Kindlin-2 (from UniProt Q96AC1 1-680)”, the binding entry in test [4] and in test [5] was “binds” throughout.
With “β1-Integrin (from UniProt P05556 21-798) (receptor)”, the binding entry in test [6] and in test [2] was “binds” in each case.

B1: TGF-β type 1 receptor (receptor, UniProt P36897 34-503)
chain: T1 sequence
For the molecule B1, the binding result in test [6] and in test [1] was “binds” in each case.
